These are yes or no findings as the source states them, for the method shown.
Biological target: RBX2 RING domain (44-113) (UniProt Q9UBF6)
Assay: NMR titration; 15N-HSQC of 50 µM 15N-labelled RBX2 RING with unlabelled E2 added (∼100 µM in Fig. 3D; increasing concentrations in Fig. 5D); 20°C; 100 mM NaCl, 1 mM DTT, 25 mM HEPES pH 7.5; both purified

The chains behind the UniProt entries cited, without tags or fusion partners. Residues count along the entry.
UniProt Q9UBF6, residues 44-113: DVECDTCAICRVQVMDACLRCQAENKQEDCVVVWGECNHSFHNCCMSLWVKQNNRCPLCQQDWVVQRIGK
UniProt P61081: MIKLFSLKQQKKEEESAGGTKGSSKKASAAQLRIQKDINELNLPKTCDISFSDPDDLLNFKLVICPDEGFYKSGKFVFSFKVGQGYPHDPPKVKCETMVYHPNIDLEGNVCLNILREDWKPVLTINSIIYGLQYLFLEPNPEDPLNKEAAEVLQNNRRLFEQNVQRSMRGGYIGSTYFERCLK

UBE2M, full-length (from UniProt P61081 1-183) (enzyme)
binding: no binding (tested: ∼100 µM)
